The results in this text go back to PMC4511362.

The target in this assay is His-tagged recombinant wild-type leucocyte elastase inhibitor (LEI). As to the kind of experiment: pull-down; His-tagged LEI loaded on His-select cartridge (nickel resin); 100 ug crude extract of HeLa cells loaded, washed, eluted; eluate blotted with anti-PKC zeta; only the target purified.

No constants are given. Whether binding was seen depends on the method and setting. Binding seen in cells or lysates may run through a third protein. Binding calls can cover weak binding; strength is not graded here.

B1: Protein kinase C (PKC) zeta, endogenous in HeLa cells (enzyme, UniProt Q05513 1-592)
chain: MPSRTGPKMEGSGGRVRLKAHYGGDIFITSVDAATTFEELCEEVRDMCRLHQQHPLTLKWVDSEGDPCTVSSQMELEEAFRLARQCRDEGLIIHVFPSTPEQPGLPCPGEDKSIYRRGARRWRKLYRANGHLFQAKRFNRRAYCGQCSERIWGLARQGYRCINCKLLVHKRCHGLVPLTCRKHMDSVMPSQEPPVDDKNEDADLPSEETDGIAYISSSRKHDSIKDDSEDLKPVIDGMDGIKISQGLGLQDFDLIRVIGRGSYAKVLLVRLKKNDQIYAMKVVKKELVHDDEDIDWVQTEKHVFEQASSNPFLVGLHSCFQTTSRLFLVIEYVNGGDLMFHMQRQRKLPEEHARFYAAEICIALNFLHERGIIYRDLKLDNVLLDADGHIKLTDYGMCKEGLGPGDTTSTFCGTPNYIAPEILRGEEYGFSVDWWALGVLMFEMMAGRSPFDIITDNPDMNTEDYLFQVILEKPIRIPRFLSVKASHVLKGFLNKDPKERLGCRPQTGFSDIKSHAFFRSIDWDLLEKKQALPPFQPQITDDYGLDNFDTQFTSEPVQLTPDDEDAIKRIDQSEFEGFEYINPLLLSTEESV
Regarding B1, the binding result is on record as “binds”.
